Measurements published in PMC11579293.
No constants are given. Whether binding was seen depends on the method and setting. In cells and extracts the contact can be indirect. Some binding calls cover weakened binding; strength is not graded here.

Protein sequences, listed by entry. Tags and fused reporters are not part of them.
UniProt P08207: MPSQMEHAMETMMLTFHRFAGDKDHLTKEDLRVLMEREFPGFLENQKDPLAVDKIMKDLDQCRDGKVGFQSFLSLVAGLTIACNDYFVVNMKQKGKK
UniProt P07356: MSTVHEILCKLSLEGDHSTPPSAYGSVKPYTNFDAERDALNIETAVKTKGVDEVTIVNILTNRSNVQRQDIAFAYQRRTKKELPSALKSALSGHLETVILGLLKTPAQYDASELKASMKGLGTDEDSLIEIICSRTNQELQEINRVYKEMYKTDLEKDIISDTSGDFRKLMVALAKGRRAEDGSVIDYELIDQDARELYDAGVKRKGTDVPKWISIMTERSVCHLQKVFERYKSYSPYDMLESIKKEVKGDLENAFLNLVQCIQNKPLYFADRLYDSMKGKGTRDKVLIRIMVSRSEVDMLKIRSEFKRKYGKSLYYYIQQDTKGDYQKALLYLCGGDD

Molecular target: S100A10 (mouse (endogenous in primary murine MSC)) (UniProt P08207)
Test: co-IP; MSC lysed in RIPA buffer (50 mM Tris HCl pH 7.4, 150 mM NaCl, 1% Triton X-100, 1% Na DOC, 0.1% SDS, 1 mM EDTA); 2 ug antibody against S100A10 for 3 h at 4 C, then Dynabeads Protein G overnight at 4 C; washes with ice cold RIPA; SDS-PAGE and immunoblot

Substance: annexin A2 (from UniProt P07356 1-339)
- binding: binds
